± gives the standard deviation of the averaged measurements. Single values are uncertain here, since repeats match poorly.
Compound: CC[C@@H](C)Nc1cc(C(=O)N[C@H]2C[C@H]3CC[C@@H](C2)N3c2ccc(C(=O)C3CC3)cn2)c(C)cc1C(N)=O [XL888]
Assay: phosphopeptide melting temperature shift (XL888 minus DMSO); higher = stabilised by drug treatment
Conditions: 100 µM; treatment time 2 h; layout: intact cells; SK-Mel 28
Protocol: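 Phospho-TPP in intact SK-Mel 28 cells treated with 100 uM XL888 or DMSO for 2 h, heated at 10 temperatures (37-67 C) for 3 min, soluble fraction TMT10plex-labelled and TiO2 phospho-enriched. Melting curves were fitted per phosphopeptide; the value is the melting point difference (drug minus vehicle) in each of two biological replicates.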

Protein sequences, listed by entry. Tags and fused reporters are not part of them. Lines headed by an entry give the natural chain unless they say otherwise; changes in a name come on top.
UniProt Q9Y5T5, whole entry, looked up: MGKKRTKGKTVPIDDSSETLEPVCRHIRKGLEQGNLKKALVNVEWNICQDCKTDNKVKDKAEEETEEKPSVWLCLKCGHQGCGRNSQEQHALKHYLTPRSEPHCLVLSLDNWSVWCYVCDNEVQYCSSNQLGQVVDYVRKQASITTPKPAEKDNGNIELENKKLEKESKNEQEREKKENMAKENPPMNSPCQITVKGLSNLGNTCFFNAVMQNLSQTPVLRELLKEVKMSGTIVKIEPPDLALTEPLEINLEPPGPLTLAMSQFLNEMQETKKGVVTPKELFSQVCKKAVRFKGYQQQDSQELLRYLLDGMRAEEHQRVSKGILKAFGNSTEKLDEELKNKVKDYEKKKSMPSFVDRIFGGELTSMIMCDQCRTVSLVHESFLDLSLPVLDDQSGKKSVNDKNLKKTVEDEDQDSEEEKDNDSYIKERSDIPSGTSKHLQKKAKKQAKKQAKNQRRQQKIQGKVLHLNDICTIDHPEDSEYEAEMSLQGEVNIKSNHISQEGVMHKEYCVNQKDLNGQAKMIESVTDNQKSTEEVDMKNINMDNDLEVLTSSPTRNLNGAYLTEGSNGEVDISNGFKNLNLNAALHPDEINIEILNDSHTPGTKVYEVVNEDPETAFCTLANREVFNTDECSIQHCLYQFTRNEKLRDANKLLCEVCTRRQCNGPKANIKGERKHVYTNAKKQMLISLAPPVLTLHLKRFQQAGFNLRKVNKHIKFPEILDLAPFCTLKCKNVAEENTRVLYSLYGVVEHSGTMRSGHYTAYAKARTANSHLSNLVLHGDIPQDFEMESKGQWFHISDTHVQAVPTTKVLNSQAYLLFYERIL
UniProt Q53HC9: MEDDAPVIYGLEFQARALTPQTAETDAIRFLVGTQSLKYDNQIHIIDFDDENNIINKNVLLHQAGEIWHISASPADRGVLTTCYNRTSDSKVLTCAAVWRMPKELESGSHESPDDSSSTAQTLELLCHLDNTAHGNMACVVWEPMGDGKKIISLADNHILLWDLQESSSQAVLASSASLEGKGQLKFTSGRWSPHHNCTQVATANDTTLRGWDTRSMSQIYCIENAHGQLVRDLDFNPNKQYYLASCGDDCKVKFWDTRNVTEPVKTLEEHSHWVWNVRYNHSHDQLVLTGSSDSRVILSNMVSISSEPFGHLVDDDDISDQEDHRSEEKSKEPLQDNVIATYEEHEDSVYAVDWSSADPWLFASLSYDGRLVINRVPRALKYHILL
UniProt Q68DA7: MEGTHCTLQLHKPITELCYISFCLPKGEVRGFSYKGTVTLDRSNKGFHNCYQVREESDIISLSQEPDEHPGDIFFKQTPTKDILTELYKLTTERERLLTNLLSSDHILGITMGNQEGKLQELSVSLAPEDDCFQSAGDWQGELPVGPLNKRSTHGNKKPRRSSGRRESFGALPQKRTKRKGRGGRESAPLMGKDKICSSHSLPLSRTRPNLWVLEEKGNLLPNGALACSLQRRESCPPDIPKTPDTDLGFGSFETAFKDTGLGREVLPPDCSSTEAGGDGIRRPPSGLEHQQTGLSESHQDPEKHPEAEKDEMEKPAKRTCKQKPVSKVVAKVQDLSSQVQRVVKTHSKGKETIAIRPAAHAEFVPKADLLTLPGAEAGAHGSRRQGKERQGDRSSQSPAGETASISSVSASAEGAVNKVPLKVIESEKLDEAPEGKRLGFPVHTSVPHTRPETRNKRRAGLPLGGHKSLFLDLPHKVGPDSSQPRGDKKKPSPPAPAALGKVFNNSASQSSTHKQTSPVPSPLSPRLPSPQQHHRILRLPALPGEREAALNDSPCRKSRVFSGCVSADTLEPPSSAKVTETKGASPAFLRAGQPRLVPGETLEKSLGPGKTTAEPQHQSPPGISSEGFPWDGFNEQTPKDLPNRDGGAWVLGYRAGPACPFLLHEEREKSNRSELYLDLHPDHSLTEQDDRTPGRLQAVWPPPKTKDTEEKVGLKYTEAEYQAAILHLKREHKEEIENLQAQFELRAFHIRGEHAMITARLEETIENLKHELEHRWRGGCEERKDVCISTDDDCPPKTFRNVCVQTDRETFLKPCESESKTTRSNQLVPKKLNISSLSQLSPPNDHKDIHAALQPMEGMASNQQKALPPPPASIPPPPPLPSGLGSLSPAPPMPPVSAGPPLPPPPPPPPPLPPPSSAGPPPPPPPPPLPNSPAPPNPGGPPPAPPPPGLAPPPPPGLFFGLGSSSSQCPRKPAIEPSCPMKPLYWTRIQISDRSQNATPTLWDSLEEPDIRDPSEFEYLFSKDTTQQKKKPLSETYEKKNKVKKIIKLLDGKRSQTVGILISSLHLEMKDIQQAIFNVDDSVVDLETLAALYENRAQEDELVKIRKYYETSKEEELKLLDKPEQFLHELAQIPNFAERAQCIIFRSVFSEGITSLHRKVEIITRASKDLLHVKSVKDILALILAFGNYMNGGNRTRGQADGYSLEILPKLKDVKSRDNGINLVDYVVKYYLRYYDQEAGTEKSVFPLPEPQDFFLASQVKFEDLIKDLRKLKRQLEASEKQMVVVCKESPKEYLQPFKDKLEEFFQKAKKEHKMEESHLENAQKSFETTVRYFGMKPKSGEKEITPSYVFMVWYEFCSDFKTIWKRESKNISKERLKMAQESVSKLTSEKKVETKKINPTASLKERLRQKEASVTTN
UniProt Q68E01, whole entry, looked up: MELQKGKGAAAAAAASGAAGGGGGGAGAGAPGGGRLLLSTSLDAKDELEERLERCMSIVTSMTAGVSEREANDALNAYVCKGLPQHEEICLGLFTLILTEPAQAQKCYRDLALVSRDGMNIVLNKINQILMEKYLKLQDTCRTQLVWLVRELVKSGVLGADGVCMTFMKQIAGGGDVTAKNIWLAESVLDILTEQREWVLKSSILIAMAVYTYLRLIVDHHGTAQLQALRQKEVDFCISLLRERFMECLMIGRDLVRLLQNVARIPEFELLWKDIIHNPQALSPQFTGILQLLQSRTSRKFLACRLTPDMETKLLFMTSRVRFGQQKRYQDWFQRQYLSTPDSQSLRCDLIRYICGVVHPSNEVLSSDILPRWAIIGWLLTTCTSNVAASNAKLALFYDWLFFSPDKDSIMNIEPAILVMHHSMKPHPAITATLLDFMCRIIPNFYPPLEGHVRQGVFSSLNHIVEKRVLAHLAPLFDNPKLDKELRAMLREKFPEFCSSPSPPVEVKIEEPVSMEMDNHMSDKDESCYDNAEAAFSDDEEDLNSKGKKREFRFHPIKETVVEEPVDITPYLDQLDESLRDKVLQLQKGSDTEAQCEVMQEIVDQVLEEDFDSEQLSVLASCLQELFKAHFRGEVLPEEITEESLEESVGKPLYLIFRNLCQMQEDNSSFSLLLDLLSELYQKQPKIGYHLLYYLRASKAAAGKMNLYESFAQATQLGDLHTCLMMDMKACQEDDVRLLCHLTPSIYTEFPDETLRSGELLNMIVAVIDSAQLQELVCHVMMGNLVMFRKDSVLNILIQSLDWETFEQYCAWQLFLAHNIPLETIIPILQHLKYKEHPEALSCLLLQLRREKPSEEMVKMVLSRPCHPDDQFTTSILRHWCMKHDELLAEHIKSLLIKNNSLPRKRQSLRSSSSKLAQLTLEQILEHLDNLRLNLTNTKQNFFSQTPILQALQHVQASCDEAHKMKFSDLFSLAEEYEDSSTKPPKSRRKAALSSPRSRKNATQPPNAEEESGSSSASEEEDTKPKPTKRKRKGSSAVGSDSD
UniProt Q71RC2, whole entry, looked up: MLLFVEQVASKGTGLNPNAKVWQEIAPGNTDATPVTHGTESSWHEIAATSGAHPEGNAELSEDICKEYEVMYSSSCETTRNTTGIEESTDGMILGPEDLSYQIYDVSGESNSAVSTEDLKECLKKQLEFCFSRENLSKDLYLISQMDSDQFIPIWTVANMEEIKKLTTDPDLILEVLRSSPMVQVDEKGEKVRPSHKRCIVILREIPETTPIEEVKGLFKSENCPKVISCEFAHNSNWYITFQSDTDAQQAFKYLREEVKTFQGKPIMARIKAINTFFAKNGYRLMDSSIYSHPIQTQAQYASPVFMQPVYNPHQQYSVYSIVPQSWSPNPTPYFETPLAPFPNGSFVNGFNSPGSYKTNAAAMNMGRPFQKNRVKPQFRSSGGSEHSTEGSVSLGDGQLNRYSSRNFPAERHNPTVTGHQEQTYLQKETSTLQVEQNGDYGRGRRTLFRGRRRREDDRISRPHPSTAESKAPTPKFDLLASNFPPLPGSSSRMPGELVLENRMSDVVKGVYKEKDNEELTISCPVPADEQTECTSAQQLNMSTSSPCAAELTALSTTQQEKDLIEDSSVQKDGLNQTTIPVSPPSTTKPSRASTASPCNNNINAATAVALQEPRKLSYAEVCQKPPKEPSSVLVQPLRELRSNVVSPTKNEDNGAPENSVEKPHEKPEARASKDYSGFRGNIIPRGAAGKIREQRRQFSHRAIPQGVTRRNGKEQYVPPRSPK
UniProt Q86UE8, whole entry, looked up: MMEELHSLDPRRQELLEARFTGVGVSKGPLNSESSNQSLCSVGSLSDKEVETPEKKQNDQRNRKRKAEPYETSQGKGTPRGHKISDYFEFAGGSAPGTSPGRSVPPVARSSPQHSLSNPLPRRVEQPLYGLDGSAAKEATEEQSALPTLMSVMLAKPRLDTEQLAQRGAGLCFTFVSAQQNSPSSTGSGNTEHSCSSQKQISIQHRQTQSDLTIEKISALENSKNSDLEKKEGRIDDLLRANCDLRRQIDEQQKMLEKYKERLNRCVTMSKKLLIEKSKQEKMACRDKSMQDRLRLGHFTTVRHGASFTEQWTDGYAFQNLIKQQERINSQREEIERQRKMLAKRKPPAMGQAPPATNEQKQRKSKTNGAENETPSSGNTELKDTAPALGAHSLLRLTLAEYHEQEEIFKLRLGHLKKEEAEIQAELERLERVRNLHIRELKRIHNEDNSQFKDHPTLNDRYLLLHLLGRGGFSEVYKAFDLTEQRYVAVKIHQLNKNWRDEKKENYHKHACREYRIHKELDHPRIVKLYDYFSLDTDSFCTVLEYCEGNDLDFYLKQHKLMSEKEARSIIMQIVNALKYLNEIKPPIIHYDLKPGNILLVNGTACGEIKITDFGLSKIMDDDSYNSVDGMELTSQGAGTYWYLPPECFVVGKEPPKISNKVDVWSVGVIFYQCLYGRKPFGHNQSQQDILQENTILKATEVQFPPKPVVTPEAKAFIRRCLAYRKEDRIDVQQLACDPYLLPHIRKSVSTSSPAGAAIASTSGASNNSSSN
UniProt Q86VP1, whole entry, looked up: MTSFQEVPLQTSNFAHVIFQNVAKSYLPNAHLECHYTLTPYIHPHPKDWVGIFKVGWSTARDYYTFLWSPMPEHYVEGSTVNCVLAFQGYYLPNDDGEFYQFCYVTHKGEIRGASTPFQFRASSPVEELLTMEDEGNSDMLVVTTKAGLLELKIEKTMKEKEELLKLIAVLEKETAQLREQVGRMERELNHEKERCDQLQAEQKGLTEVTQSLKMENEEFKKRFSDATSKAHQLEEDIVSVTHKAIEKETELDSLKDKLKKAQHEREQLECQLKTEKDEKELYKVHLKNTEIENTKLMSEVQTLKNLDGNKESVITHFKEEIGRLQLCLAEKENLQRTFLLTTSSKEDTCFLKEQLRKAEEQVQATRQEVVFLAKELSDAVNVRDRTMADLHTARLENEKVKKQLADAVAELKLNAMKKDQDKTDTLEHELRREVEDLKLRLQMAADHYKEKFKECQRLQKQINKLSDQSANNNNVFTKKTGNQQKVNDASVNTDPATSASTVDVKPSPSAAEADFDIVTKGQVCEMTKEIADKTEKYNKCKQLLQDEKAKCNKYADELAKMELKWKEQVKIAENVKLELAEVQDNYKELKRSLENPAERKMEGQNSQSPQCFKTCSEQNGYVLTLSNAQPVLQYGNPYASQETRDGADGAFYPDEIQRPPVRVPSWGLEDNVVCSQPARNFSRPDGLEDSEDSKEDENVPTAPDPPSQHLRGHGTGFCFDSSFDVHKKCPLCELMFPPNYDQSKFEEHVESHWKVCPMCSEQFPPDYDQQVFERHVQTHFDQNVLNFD
UniProt Q86VR2, whole entry, looked up: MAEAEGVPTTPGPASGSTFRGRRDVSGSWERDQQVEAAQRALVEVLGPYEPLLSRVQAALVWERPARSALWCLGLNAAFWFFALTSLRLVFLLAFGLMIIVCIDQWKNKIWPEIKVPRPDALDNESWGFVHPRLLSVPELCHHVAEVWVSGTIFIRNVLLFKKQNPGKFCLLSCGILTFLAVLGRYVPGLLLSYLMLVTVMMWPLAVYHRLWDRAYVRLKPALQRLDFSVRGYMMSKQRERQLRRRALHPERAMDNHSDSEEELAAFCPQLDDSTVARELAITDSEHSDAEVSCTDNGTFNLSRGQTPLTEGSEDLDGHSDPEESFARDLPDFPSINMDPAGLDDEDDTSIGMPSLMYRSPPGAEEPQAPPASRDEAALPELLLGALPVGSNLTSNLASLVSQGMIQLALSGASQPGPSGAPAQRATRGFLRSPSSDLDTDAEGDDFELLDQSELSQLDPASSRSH

| Target | phosphopeptide melting temperature shift [°C] |
| --- | --- |
| UniProt Q9Y4F5-3_phosphosite_527 (phosphosite position: 527) | -0.88 ± 1.4 |
| UniProt Q9Y4F5-3_phosphosite_549 (phosphosite position: 549) | -0.338 ± 1.2 |
| UniProt Q9Y4F5-3_phosphosite_1065 (phosphosite position: 1065) | 1.72 |
| UniProt Q9Y4F5-3_phosphosite_1234 (phosphosite position: 1234) | 1.93 ± 0.99 |
| UniProt Q9Y4F5-3_phosphosite_1475 (phosphosite position: 1475) | 0.674 |
| UniProt Q9Y4F5-3_phosphosite_1478 (phosphosite position: 1478) | -0.367 ± 0.27 |
| UniProt Q9Y5B6-2_phosphosite_262 (phosphosite position: 262) | 2.7 ± 0.84 |
| UniProt Q9Y5B6-2_phosphosite_557 (phosphosite position: 557) | 0.82 |
| UniProt Q9Y5B6-2_phosphosite_558 (phosphosite position: 558) | 0.82 |
| UniProt Q9Y5Q9-2_phosphosite_43 (phosphosite position: 43) | 5.06 |
| UniProt Q9Y5S2_phosphosite_1690 (phosphosite position: 1690) | 1.26 ± 2.3 |
| UniProt Q9Y5S9_phosphosite_56 (phosphosite position: 56) | 11.4 |
| UniProt Q9Y5T5-4_phosphosite_105 (phosphosite position: 105) | 0.568 ± 1.1 |
| UniProt Q9Y6Q9-4_phosphosite_214 (phosphosite position: 214) | -2.39 |
| UniProt Q9Y520-6_phosphosite_924 (phosphosite position: 924) | 1.52 ± 0.018 |
| UniProt Q9Y520-6_phosphosite_926 (phosphosite position: 926) | 0.194 ± 1.3 |
| UniProt Q9Y520-6_phosphosite_2013 (phosphosite position: 2013) | 1.03 |
| UniProt Q9Y520-6_phosphosite_2105 (phosphosite position: 2105) | -0.157 ± 0.0046 |
| UniProt Q9Y618-5_phosphosite_149 (phosphosite position: 149) | 2.59 ± 2.1 |

| Target | phosphopeptide melting temperature shift [°C] |
| --- | --- |
| UniProt Q9Y618-5_phosphosite_152 (phosphosite position: 152) | 2.59 ± 2.1 |
| UniProt Q14C86-3_phosphosite_746 (phosphosite position: 746) | 1.84 |
| UniProt Q27J81-2_phosphosite_1188 (phosphosite position: 1188) | 1.62 |
| UniProt Q32MZ4-3_phosphosite_88 (phosphosite position: 88) | 0.818 ± 0.96 |
| UniProt Q32MZ4-3_phosphosite_712 (phosphosite position: 712) | 5.64 |
| UniProt Q53EL6-2_phosphosite_82 (phosphosite position: 82) | 2.22 |
| UniProt Q53EL6-2_phosphosite_446 (phosphosite position: 446) | 0.182 ± 0.37 |
| UniProt Q53HC9_phosphosite_320 (phosphosite position: 320) | 1.55 ± 1.2 |
| UniProt Q58WW2-4_phosphosite_700 (phosphosite position: 700) | 3.22 |
| UniProt Q58WW2-4_phosphosite_703 (phosphosite position: 703) | 3.22 |
| UniProt Q63ZY3-3_phosphosite_375 (phosphosite position: 375) | 1.46 |
| UniProt Q66K74-2_phosphosite_446 (phosphosite position: 446) | -0.000445 ± 0.033 |
| UniProt Q66K74-2_phosphosite_612 (phosphosite position: 612) | 1.62 ± 1.5 |
| UniProt Q66K74-2_phosphosite_614 (phosphosite position: 614) | 1.45 ± 1.3 |
| UniProt Q66K74-2_phosphosite_705 (phosphosite position: 705) | -0.102 ± 0.85 |
| UniProt Q66K74-2_phosphosite_715 (phosphosite position: 715) | -0.762 ± 0.88 |
| UniProt Q66K74-2_phosphosite_733 (phosphosite position: 733) | -0.29 ± 0.51 |
| UniProt Q68DA7_phosphosite_620 (phosphosite position: 620) | 0.39 ± 0.2 |
| UniProt Q68DA7_phosphosite_842 (phosphosite position: 842) | 3.3 |

| Target | phosphopeptide melting temperature shift [°C] |
| --- | --- |
| UniProt Q68E01-4_phosphosite_14 (phosphosite position: 14) | 4.39 ± 1.8 |
| UniProt Q69YQ0-2_phosphosite_220 (phosphosite position: 220) | 1.72 ± 0.47 |
| UniProt Q71RC2-5_phosphosite_526 (phosphosite position: 526) | 0.39 |
| UniProt Q71RC2-5_phosphosite_651 (phosphosite position: 651) | -2.46 |
| UniProt Q76FK4-2_phosphosite_297 (phosphosite position: 297) | -0.474 |
| UniProt Q86UE8-2_phosphosite_117 (phosphosite position: 117) | 2.57 |
| UniProt Q86UU0-3_phosphosite_116 (phosphosite position: 116) | 8.31 |
| UniProt Q86UU1-3_phosphosite_324 (phosphosite position: 324) | -0.9 ± 0.076 |
| UniProt Q86UU1-3_phosphosite_518 (phosphosite position: 518) | -0.242 |
| UniProt Q86UU1-3_phosphosite_520 (phosphosite position: 520) | -0.494 |
| UniProt Q86UU1-3_phosphosite_583 (phosphosite position: 583) | -0.328 ± 0.17 |
| UniProt Q86UV5-2_phosphosite_886 (phosphosite position: 886) | 2.23 |
| UniProt Q86V48-2_phosphosite_574 (phosphosite position: 574) | 2.33 |
| UniProt Q86VP1-2_phosphosite_624 (phosphosite position: 624) | 0.384 |
| UniProt Q86VR2-2_phosphosite_63 (phosphosite position: 63) | 2.14 ± 1.5 |
| UniProt Q86VR2-2_phosphosite_65 (phosphosite position: 65) | 2.14 ± 1.5 |
| UniProt Q86W92-2_phosphosite_449 (phosphosite position: 449) | 0.904 |
| UniProt Q86W92-2_phosphosite_595 (phosphosite position: 595) | 0.616 ± 1.3 |
| UniProt Q86X95_phosphosite_202 (phosphosite position: 202) | -0.464 ± 1.4 |

As a working copy, some entries already given.

| Target | phosphopeptide melting temperature shift [°C] |
| --- | --- |
| UniProt Q68E01-4_phosphosite_14 (phosphosite position: 14) | 4.39 ± 1.8 |
| UniProt Q69YQ0-2_phosphosite_220 (phosphosite position: 220) | 1.72 ± 0.47 |
| UniProt Q71RC2-5_phosphosite_526 (phosphosite position: 526) | 0.39 |
| UniProt Q71RC2-5_phosphosite_651 (phosphosite position: 651) | -2.46 |
| UniProt Q76FK4-2_phosphosite_297 (phosphosite position: 297) | -0.474 |
| UniProt Q86UE8-2_phosphosite_117 (phosphosite position: 117) | 2.57 |
| UniProt Q86UU0-3_phosphosite_116 (phosphosite position: 116) | 8.31 |
| UniProt Q86UU1-3_phosphosite_324 (phosphosite position: 324) | -0.9 ± 0.076 |
| UniProt Q86UU1-3_phosphosite_518 (phosphosite position: 518) | -0.242 |
| UniProt Q86UU1-3_phosphosite_520 (phosphosite position: 520) | -0.494 |
| UniProt Q86UU1-3_phosphosite_583 (phosphosite position: 583) | -0.328 ± 0.17 |
| UniProt Q86UV5-2_phosphosite_886 (phosphosite position: 886) | 2.23 |
| UniProt Q86V48-2_phosphosite_574 (phosphosite position: 574) | 2.33 |
| UniProt Q86VP1-2_phosphosite_624 (phosphosite position: 624) | 0.384 |
| UniProt Q86VR2-2_phosphosite_63 (phosphosite position: 63) | 2.14 ± 1.5 |
| UniProt Q86VR2-2_phosphosite_65 (phosphosite position: 65) | 2.14 ± 1.5 |
| UniProt Q86W92-2_phosphosite_449 (phosphosite position: 449) | 0.904 |
| UniProt Q86W92-2_phosphosite_595 (phosphosite position: 595) | 0.616 ± 1.3 |
